In publication PMC2923601 one finds binding data, which are given here for 3 molecules.

No constants are given. Whether binding was seen depends on the method and setting. For part of these data: In cells and extracts the contact can be indirect. Some entries that bind do so weakly or less than the wild type.

The target in assay [1] is T1, full-length human DNA polymerase lambda (human) (UniProt Q9UGP5).
T1 sequence: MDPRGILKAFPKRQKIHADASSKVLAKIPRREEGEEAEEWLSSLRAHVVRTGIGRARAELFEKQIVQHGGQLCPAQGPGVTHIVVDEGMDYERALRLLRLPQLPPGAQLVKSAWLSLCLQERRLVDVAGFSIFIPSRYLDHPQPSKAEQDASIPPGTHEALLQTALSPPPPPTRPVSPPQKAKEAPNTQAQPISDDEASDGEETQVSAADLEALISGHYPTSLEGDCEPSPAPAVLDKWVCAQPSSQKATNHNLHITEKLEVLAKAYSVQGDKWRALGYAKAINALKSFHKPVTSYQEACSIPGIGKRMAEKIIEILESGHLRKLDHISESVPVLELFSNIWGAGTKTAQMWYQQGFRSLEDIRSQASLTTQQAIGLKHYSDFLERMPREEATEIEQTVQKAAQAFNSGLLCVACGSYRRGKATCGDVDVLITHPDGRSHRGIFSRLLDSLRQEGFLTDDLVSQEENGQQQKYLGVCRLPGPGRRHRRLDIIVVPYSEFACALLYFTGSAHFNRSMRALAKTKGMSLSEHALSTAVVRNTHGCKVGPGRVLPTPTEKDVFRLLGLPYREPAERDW
The experiment in a line: co-IP; 1.5 µM equimolar mixture of purified DNA polymerase and DNA glycosylase with antibody to one of them, 50 µl, 4 h at 4°C; binding buffer 25 mM Tris-HCl pH 8, 10% glycerol, 100 mM NaCl, 0.01% Nonidet P-40; protein A/G or anti-rabbit IgG beads; immunoblot; both purified. Background: In western blotting, separated proteins are transferred to a membrane and probed.

The target of assay [2] is T2, DNA polymerase lambda (endogenous, mouse fibroblast extract) (mouse (endogenous in mouse fibroblasts)) (UniProt Q9QXE2).
T2 sequence: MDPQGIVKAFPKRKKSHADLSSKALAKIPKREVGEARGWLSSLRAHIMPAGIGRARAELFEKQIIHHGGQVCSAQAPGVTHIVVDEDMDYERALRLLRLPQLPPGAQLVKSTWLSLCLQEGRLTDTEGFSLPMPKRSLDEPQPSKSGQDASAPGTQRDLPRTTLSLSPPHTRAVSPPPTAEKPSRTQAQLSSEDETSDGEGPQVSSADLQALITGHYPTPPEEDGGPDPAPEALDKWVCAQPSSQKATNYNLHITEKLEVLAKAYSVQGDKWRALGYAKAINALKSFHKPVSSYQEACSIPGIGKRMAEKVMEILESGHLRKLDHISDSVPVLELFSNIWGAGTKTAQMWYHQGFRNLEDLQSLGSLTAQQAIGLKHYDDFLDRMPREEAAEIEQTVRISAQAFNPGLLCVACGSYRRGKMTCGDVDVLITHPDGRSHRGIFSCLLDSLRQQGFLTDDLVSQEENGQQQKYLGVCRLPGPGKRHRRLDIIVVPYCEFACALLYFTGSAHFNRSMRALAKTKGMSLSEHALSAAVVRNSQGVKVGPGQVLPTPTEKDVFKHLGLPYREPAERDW
The experiment in a line: co-IP; 1 mg mouse fibroblast cell extract with 0.7 mg antibody or non-immune IgG, 4 h at 4°C; TrueBlot anti-rabbit IgG IP beads overnight; lysis buffer 50 mM Tris-HCl pH 7.5, 150 mM NaCl, 0.2% Triton X-100, 0.3% Nonidet P-40; immunoblot; knockout cell extracts as controls.

Assay [3] has as its target 8-oxoguanine-DNA glycosylase 1 (OGG1) (endogenous, mouse fibroblast extract) (mouse (endogenous in mouse fibroblasts)) (UniProt O08760). The description is as above.

Consider “human alkyladenine-DNA glycosylase (AAG) (from UniProt P29372 18-298) (enzyme)”, for which the binding result in assay [1] is “binds”.
With “8-oxoguanine-DNA glycosylase 1 (OGG1) (endogenous, mouse fibroblast extract) (from UniProt O08760 1-345) (enzyme)”, the binding result in assay [2] is on record as “binds”.

B1: DNA polymerase lambda (endogenous, mouse fibroblast extract) (enzyme, UniProt Q9QXE2 1-573)
chain: T2 sequence
With B1, the binding result in assay [3] was “binds”.
